# Strings that start with PEPTIDE1 are HELM notation: dots part the residues, brackets hold end groups and non-standard residues.
# Test: general procedure: Fmoc solid-phase peptide synthesis; 2-Cl-Trt resin; HATU, HOAt, DIPEA (in-solution macrocyclization)
# Settings: whole synthesis; for final HPLC purity: UPLC λ = 280 nm; for isolated yield: overall, based on the resin loading
substance,measurement,value
"PEPTIDE1{[DhaThzPyrThzOMe].W.W.[hGln].[MeGly].[Dhb].[MeGly].[TicOH].[Dha].[Dha].T.[MeNph].[Dhb].G}$PEPTIDE1,PEPTIDE1,1:R1-14:R2$$$V2.0",final HPLC purity,94%
same,isolated yield,6%
"PEPTIDE1{[DhaThzPyrThzOMe].W.A.[MeGly].[MeNph].[Dhb].N.[TicOH].[hGln].[Dha].[Dhb].[Dha].[ValThz]}$PEPTIDE1,PEPTIDE1,1:R1-13:R2$$$V2.0",final HPLC purity,95%
same,isolated yield,3%
"PEPTIDE1{[DhaThzPyrThzOMe].W.T.N.S.[MeNph].[TicOH].N.[MeNph].[MeGly].[MeGly].[MeGly].T.P}$PEPTIDE1,PEPTIDE1,1:R1-14:R2$$$V2.0",final HPLC purity,93%
same,isolated yield,3%
"PEPTIDE1{[DhaThzPyrThzOMe].W.A.[hGln].R.L.N.[MeNph].L.R.[TicOH].[Dha].G}$PEPTIDE1,PEPTIDE1,1:R1-13:R2$$$V2.0",final HPLC purity,96%
same,isolated yield,4%
"PEPTIDE1{[DhaThzPyrThzOMe].W.W.[hGln].[MeGly].[Dha].[MeGly].[TicOH].[Dha].[Dha].T.[MeNph].[Dha].G}$PEPTIDE1,PEPTIDE1,1:R1-14:R2$$$V2.0",final HPLC purity,98%
same,isolated yield,5%
"PEPTIDE1{[DhaThzPyrThzOMe].W.T.[TicOH].P.R.L.[MeAla].[MeGly].R.R.S.N.L}$PEPTIDE1,PEPTIDE1,1:R1-14:R2$$$V2.0",final HPLC purity,98%
same,isolated yield,3%
"PEPTIDE1{[DhaThzPyrThzOMe].W.W.L.R.[Dhb].[MeGly].R.[MeAla].[Dha].T.[MeNph].[Dhb].G}$PEPTIDE1,PEPTIDE1,1:R1-14:R2$$$V2.0",final HPLC purity,95%
same,isolated yield,5%
"PEPTIDE1{[DhaThzPyrThzOMe].W.W.L.P.[TicOH].[Dha].[Dhb].[MeGly].[Dha].[Dhb].[DhbThz]}$PEPTIDE1,PEPTIDE1,1:R1-12:R2$$$V2.0",final HPLC purity,96%
same,isolated yield,2%
"PEPTIDE1{[DhaThzPyrThzOMe].W.W.[SerThz].N.[MeGly].[Dha].[Dha].[MeGly].[MeNph].[TicOH].[Dhb].A}$PEPTIDE1,PEPTIDE1,1:R1-13:R2$$$V2.0",final HPLC purity,96%
same,isolated yield,5%

# Reference: article PMC10979747 (Journal of the American Chemical Society, 2024)
